Among the data in paper PMC10866661 are binding values, retold here.

Substitutions are numbered along the chain they refer to. Results are given in words; binding and its absence hold for the method and conditions named. In cells and extracts the contact can be indirect. Some entries that bind do so weakly or less than the wild type. Sequences can lack the tags named with a protein.

In test [1] the target is T1, FLAG-tagged COPA p.D243G (WD40 domain mutant) (human) (UniProt P53621).
T1 sequence: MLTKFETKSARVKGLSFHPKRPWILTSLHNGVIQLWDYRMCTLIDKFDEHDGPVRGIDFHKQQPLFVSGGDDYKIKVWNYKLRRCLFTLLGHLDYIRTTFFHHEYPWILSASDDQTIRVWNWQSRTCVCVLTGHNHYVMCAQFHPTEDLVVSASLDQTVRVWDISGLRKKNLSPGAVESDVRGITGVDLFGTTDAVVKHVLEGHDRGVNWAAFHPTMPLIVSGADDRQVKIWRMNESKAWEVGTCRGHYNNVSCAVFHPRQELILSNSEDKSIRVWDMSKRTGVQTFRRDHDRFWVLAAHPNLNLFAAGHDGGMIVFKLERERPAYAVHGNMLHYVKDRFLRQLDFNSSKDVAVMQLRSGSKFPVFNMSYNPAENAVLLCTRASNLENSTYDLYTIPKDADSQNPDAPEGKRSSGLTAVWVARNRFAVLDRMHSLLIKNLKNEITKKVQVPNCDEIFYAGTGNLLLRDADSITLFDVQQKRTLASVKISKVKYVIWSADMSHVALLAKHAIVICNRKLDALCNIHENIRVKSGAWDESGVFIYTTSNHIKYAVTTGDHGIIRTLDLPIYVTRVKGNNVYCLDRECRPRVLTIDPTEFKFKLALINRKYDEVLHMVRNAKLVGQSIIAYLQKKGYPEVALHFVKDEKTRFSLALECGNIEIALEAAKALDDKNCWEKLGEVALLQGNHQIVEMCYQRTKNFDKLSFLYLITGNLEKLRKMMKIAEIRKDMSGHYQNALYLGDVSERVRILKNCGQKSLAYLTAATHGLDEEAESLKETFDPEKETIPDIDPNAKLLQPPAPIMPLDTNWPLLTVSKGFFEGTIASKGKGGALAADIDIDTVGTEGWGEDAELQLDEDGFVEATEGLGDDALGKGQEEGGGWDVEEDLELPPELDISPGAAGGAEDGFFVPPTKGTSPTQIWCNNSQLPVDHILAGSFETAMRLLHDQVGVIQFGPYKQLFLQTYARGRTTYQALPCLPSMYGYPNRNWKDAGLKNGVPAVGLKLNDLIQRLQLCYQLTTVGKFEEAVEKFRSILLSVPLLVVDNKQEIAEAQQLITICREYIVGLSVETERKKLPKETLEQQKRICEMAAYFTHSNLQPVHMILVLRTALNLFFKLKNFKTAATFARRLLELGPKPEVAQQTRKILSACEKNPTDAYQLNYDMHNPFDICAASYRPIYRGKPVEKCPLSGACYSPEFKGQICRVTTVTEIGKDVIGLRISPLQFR
The test is described as follows: co-IP; HEK293T cells cotransfected with FLAG-tagged WT or mutant COPA, COPB2 and COPE; whole-cell extract 48 h after transfection incubated overnight with anti-DDK (FLAG) antibody, Protein G magnetic beads, washes with PBS 0.1% Tween-20; immunoblot of eluate and input for FLAG, COPB2 and COPE. (A western blot detects proteins with antibodies after separation by electrophoresis.)

For test [2], the target named is T2, FLAG-tagged COPA p.R1058C (C-terminal domain mutant) (human) (UniProt P53621).
T2 sequence: T1 sequence with G243D, R1058C
The description is as above.

B1: COPB2 (protein, UniProt P35606 1-906)
chain: MPLRLDIKRKLTARSDRVKSVDLHPTEPWMLASLYNGSVCVWNHETQTLVKTFEVCDLPVRAAKFVARKNWVVTGADDMQIRVFNYNTLERVHMFEAHSDYIRCIAVHPTQPFILTSSDDMLIKLWDWDKKWSCSQVFEGHTHYVMQIVINPKDNNQFASASLDRTIKVWQLGSSSPNFTLEGHEKGVNCIDYYSGGDKPYLISGADDRLVKIWDYQNKTCVQTLEGHAQNVSCASFHPELPIIITGSEDGTVRIWHSSTYRLESTLNYGMERVWCVASLRGSNNVALGYDEGSIIVKLGREEPAMSMDANGKIIWAKHSEVQQANLKAMGDAEIKDGERLPLAVKDMGSCEIYPQTIQHNPNGRFVVVCGDGEYIIYTAMALRNKSFGSAQEFAWAHDSSEYAIRESNSIVKIFKNFKEKKSFKPDFGAESIYGGFLLGVRSVNGLAFYDWDNTELIRRIEIQPKHIFWSDSGELVCIATEESFFILKYLSEKVLAAQETHEGVTEDGIEDAFEVLGEIQEIVKTGLWVGDCFIYTSSVNRLNYYVGGEIVTIAHLDRTMYLLGYIPKDNRLYLGDKELNIISYSLLVSVLEYQTAVMRRDFSMADKVLPTIPKEQRTRVAHFLEKQGFKQQALTVSTDPEHRFELALQLGELKIAYQLAVEAESEQKWKQLAELAISKCQFGLAQECLHHAQDYGGLLLLATASGNANMVNKLAEGAERDGKNNVAFMSYFLQGKVDACLELLIRTGRLPEAAFLARTYLPSQVSRVVKLWRENLSKVNQKAAESLADPTEYENLFPGLKEAFVVEEWVKETHADLWPAKQYPLVTPNEERNVMEEGKDFQPSRSTAQQELDGKPASPTPVIVASHTANKEEKSLLELEVDLDNLELEDIDTTDINLDEDILDD
For the molecule B1, the binding entry in test [1] and in test [2] was “binds” throughout.
